Laboratory results as given in article PMC11312485.
These are yes or no findings as the source states them, for the method shown. Binding seen in cells or lysates may run through a third protein. Some binding calls cover weakened binding; strength is not graded here.

Protein sequences, listed by entry. Tags and fused reporters are not part of them.
UniProt Q12834: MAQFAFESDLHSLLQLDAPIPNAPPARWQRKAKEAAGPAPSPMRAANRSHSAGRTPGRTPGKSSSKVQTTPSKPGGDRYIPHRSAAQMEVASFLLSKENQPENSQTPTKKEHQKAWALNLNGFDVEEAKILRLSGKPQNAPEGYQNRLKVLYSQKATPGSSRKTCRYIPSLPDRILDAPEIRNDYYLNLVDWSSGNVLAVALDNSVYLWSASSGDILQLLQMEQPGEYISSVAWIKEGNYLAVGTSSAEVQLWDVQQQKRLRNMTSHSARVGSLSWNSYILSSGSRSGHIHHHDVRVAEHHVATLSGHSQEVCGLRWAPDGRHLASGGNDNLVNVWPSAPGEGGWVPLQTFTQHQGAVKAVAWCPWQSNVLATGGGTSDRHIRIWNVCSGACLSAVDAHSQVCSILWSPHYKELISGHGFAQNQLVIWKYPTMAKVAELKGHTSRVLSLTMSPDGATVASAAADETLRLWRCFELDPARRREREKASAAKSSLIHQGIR
UniProt P27694: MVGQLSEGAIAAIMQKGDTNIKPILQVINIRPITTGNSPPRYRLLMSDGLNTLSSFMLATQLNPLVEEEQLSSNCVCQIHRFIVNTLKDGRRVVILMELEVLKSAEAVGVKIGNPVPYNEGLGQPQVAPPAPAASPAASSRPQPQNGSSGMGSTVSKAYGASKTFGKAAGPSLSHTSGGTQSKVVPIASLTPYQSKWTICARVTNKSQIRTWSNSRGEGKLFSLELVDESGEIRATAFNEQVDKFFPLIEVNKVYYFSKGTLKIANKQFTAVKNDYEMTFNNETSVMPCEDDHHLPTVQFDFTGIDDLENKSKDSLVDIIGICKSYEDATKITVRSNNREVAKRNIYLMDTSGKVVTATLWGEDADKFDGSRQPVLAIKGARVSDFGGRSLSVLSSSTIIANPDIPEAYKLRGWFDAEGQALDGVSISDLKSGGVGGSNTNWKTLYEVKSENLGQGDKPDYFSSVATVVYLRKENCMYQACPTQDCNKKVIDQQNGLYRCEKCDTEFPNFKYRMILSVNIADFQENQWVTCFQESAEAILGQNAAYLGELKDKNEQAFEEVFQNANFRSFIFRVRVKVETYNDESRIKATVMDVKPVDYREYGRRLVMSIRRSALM
UniProt P15927: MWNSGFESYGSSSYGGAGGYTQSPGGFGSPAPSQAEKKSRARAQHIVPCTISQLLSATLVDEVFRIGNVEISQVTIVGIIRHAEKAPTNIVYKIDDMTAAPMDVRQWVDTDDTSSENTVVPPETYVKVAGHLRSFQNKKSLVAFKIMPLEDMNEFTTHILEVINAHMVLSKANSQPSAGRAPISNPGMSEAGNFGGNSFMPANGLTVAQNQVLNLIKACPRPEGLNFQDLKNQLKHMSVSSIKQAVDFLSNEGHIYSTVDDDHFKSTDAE

Biological target: Cell division cycle 20 (CDC20) (human (endogenous in KYSE450 and KYSE200)) (UniProt Q12834)
Assay: co-IP; cells treated with 0 Gy (control) or 5 Gy X-ray; total lysates in RIPA buffer, CDC20 antibody 12 h at 4 °C, Protein G Sepharose; immunoprecipitates blotted for RPA1 and RPA2

binding | Substance
binds | RPA1 (from UniProt P27694 1-616)
binds | RPA2 (from UniProt P15927 1-270)
